In PubChem BioAssay AID624291 (National Center for Advancing Translational Sciences (NCATS), 2012):
Screen size: about 350,000 compounds; about 220 (0.063%) were called active. Inconclusive means that the source gave no clear call. Such entries were picked first, then a sample of the others. Calls come from the whole dose curve; as a rule, active = well fitted activation curve with a large enough effect; inconclusive = small, poorly fitted or top-dose-only effect; inactive = no such curve, though single readings can be large or run the other way. Potencies of inconclusive entries are doubtful fits and often do not repeat.

Assay: qHTS for Activators of Integrin-Mediated Alleviation for Muscular Dystrophy; note: nearly all actives have a fitted effect of over 60% in size;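 for activation: 100% = response of the positive control SU9516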
Settings: alpha7betagal myoblasts, beta-gal FDG fluorescence, 48 h; activation: at 38.3 µM (top of the series)
How it was run: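 alpha7betagal+/- myoblasts (passage 13, 250/well) treated 48 h at 37C with compounds at 1:260 dilution of DMSO stock. Lysed, then beta-galactosidase activity read as FDG fluorescence (ex 480/em 540) after 30 min, with pre-read for autofluorescence.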
Potency is the fitted concentration of half-maximal effect.

Potency, inconclusive:
CCc1c(C)nc2ncnn2c1N1CCC(C(=O)NCc2cccs2)CC1 28.2 µM [activator, single point], O=C(O)CC(SCC(=O)NC1CCCc2ccccc21)C(=O)O (stereo not given) 5.01 µM [activator, single point], COc1ccc(CNC(=O)c2cc3ccccc3oc2=O)cc1 3.16 µM [activator, partial curve, poor fit], Cc1cccc(N(C(=O)c2snc(C(N)=O)c2N)C(C(=O)NCC2CCCO2)c2ccc(N(C)C)cc2)c1 (stereo not given) 8.91 µM [activator, partial curve, poor fit], OCCC1CN(Cc2nc3c(s2)CCCC3)CCN1CCc1ccccc1 (stereo not given) 2.24 µM [activator, single point], O=C(NCCO)c1ccc2[nH]c3ccccc3c2c1 3.98 µM [activator, partial curve, poor fit], COC(=O)c1ccc(CNC(=O)CCNC(=O)c2ccco2)cc1 1.41 µM [activator, single point], CCCc1cc(=O)oc2cc(C)cc(OC(C)C(=O)NCc3ccccn3)c12 (stereo not given) 1.26 µM [activator, partial curve, poor fit], COc1cccc(NC(=O)CN(C)C(=O)COc2cc(C)ccc2Cl)c1 22.4 µM [activator, single point], Cn1ccnc1CC(O)(c1ccccc1)c1ccccc1 7.94 µM [activator, partial curve], Cc1cccc(CCN2C(N(C)C)=NC[C@@H]2C)c1 5.01 µM [activator, single point], COc1ccc(CNC(=O)CN(c2cccc(OC)c2)S(C)(=O)=O)cc1 3.98 µM [activator, partial curve, poor fit], Cc1cc(-c2ccccc2)nc(Nc2nc3c(C)cccc3c(=O)[nH]2)n1 28.2 µM [activator, single point], Nc1ccccc1SCC(=O)Nc1nccs1 0.501 µM [activator, full curve, poor fit], CC1(c2ccccc2Cl)NC(=O)N(CC(=O)Nc2ccc3c(c2)OCO3)C1=O (stereo not given) 15.8 µM [activator, single point], COc1ccc(C(=O)NCCCSc2ccccc2)cc1F 5.01 µM [activator, single point], CCOC(=O)N1CCC(N(CCOC)C(=S)Nc2cccc(SC)c2)CC1 5.01 µM [activator, single point], COc1ccc(CNc2nc3c(c(=O)[nH]c(=O)n3C)n2Cc2ccccc2)cc1 10 µM [activator, single point], FC(F)(F)c1cnc2c(c1)[nH]c(=S)n2-c1ccc(Cl)cc1 5.01 µM [activator, single point], Cc1ccc(C(=O)COC(=O)CCN2C(=O)C3C4C=CC(C5CC45)C3C2=O)cc1 (stereo not given) 0.891 µM [activator, full curve, poor fit], O=C(Nc1ccc(S(=O)(=O)NCc2ccco2)cc1)C1CCCCC1 5.01 µM [activator, single point], CCOc1ccc(N2C(=O)CC(n3nc(C)cc3C)C2=O)cc1 (stereo not given) 5.01 µM [activator, partial curve, poor fit], NC(=O)C1CCN(c2oc(-c3cccs3)nc2S(=O)(=O)c2ccc(Br)cc2)CC1 5.01 µM [activator, single point], N#C/C(=C(/O)CSc1nnc(Cc2cccs2)n1C1CCCCC1)c1nc2ccccc2[nH]1 31.6 µM [activator, single point], CCOc1ccc(CNC(=O)CCS(=O)(=O)c2ccc3c(c2)oc(=O)n3C)cc1 28.2 µM [activator, single point], COc1ccccc1C(C)N(C)Cc1nc(COc2ccccc2)no1 (stereo not given) 28.2 µM [activator, single point], CC(=O)Nc1ccc(C(=O)Nc2ccncc2)cc1 11.2 µM [activator, single point], CC(C)NC(=O)COC(=O)CNC(=O)c1cc(Cl)cc([N+](=O)[O-])c1 0.891 µM [activator, partial curve, poor fit], CC1CCCCN1CCCNc1c(C=O)c(=O)[nH]c2ccccc12 (stereo not given) 5.01 µM [activator, partial curve, poor fit], CCn1cc(S(=O)(=O)c2ccc(C)cc2)c(=O)c2cc(OC)ccc21 28.2 µM [activator, single point], COC(=O)c1ccc(NC(=O)CCN2C(=O)NC(C)(C)C2=O)cc1 1 µM [activator, full curve, poor fit], O=C1C2CCC(C2)C1CN1CCOCC1 (stereo not given) 5.01 µM [activator, single point], Cc1cccc(C)c1OCC(=O)NC(Cc1c[nH]c2ccccc12)C(=O)O (stereo not given) 7.94 µM [activator, partial curve, poor fit], Cc1ccc(CNC(=O)CN2C(=O)NC3(CC(C)CC(C)(C)C3)C2=O)cc1 (stereo not given) 20 µM [activator, single point], CC(=O)Nc1ccc(S(=O)(=O)NNC2=NS(=O)(=O)c3ccccc32)cc1 5.01 µM [activator, single point], O=c1cc(O)nc(SCc2ccccc2)n1-c1ccc(Cl)cc1 15.8 µM [activator, single point], Cc1csc(NC(=O)c2ccc(Cl)nc2)n1 5.01 µM [activator, single point], CCOC(=O)/C(C#N)=C(\N)C(C)C(=O)Nc1ccccn1 (stereo not given) 3.98 µM [activator, single point], Cc1oc2c(CN3CCOCC3)c(O)ccc2c(=O)c1-c1ccccc1 28.2 µM [activator, single point], CCOC(=O)C(O)(CC(=O)c1ccc(OC)cc1)C(F)(F)F (stereo not given) 7.94 µM [activator, partial curve, poor fit], Cc1cc(S(=O)(=O)NCC(C)C)ccc1OCC(=O)NC1CC1 10 µM [activator, partial curve, poor fit], CCc1ccc(C(=O)COC(=O)CNC(=O)c2ccc(Br)o2)cc1 22.4 µM [activator, single point], CC(NC(=O)Nc1ccc(Br)cc1)C(C)(C)C (stereo not given) 28.2 µM [activator, single point], COC(=O)c1sc2nc(-c3ccccc3)c3c(c2c1N)CCCC3 3.55 µM [activator, partial curve, poor fit], Cc1ccc(NS(=O)(=O)c2ccc3c(c2)NC(=O)CCS3)c(Br)c1 11.2 µM [activator, partial curve], CCOC(=O)c1c(-c2ccccc2)c[nH]c1C 5.01 µM [activator, single point]

activation, inconclusive:
O=[N+]([O-])c1cc2c(cc1/C=N/NS(=O)(=O)c1ccc(Br)cc1)OCO2 -69.3% [activator]

activation, inactive:
CCCCNC(=O)/C=C1\Sc2ccccc2NC1=O -10.6%, Clc1cc(Br)ccc1OCCN1CCOCC1 6.03%, COc1cc(C(=O)NCc2ccco2)c(Br)c(OC)c1OC -10.5%, O=C(Nc1cc(S(=O)(=O)N2CCCCC2)ccc1N1CCCCC1)C1CC1 7.89%, COc1ccc(C2=CC3=C(Br)C(=O)C(C)(OC(=O)c4ccc(Cl)nc4)C(=O)C3=CO2)cc1 (stereo not given) -3.94%, COc1cccc(/C=N/NC(=O)c2ccc(-c3ccccc3)cc2)c1O -17.9%, CCCCOc1ccc(C(=O)O)cc1 -21.6%, O=C(NCCO)C(=O)Nc1cc2c3c(c1)CC(=O)N3CCC2 1.59%, Cc1nc(NC(C)c2ccccc2)c2oc3ccccc3c2n1 (stereo not given) -46.2%, COC(=O)[C@]1(C)N[C@H](CN(C)C(=O)Nc2ccc(Cl)cc2)[C@@H]2C(=O)N(Cc3ccccc3)C(=O)[C@@H]21 12.4%, NC(=S)N=Nc1c(O)[nH]c2ccccc12 -1.26%, CCCCCc1c(O)nc(SCCN2CCOCC2)[nH]c1=O 10.2%, COc1cccc(C2C3=C(CC(C)(C)CC3=O)Nc3n[nH]c(C)c32)c1 (stereo not given) -10.8%, O=C(O)CCc1ccc(-c2ccc(Cl)cc2)o1 -2.65% [at 7.66 µM], Nc1ccccc1OCP(=O)(c1ccccc1)c1ccccc1 5.62%, O=C(CCCN1C(=O)/C(=C/c2ccccc2OC(F)F)SC1=S)Nc1cccnc1 -56.3%, O=C1C(Cl)=C(NCCN2CCCCC2)C(=O)c2ccccc21 -59.4%, Cc1nc2ccccn2c1C(=O)/C=C/c1ccc(F)cc1 -50%, O=C(c1ccc(Cl)c([N+](=O)[O-])c1)N(Cc1cccc(Cl)c1)C1CCS(=O)(=O)C1 (stereo not given) -18.5%, CCOC(=O)N/N=C(\C)c1cccs1 -17.1%, COc1cc2nc(N(CCCN(C)C)C(=O)c3ccc(S(=O)(=O)N4CCc5ccccc54)cc3)sc2cc1OC -45.3%, CC1=CC(C)(C)N(C(=O)CSc2nnc(N)s2)c2cc(C)c(C)cc21 -5.75%, O=C(N/N=C/c1cccnc1)c1ccc(NC(=O)C(c2ccccc2)c2ccccc2)cc1 -39.7%
